Experimental data from patent US11065203B2, “Liposomal compositions and uses of same” (Technion Research & Development Foundation Limited, priority 2009, dated 2021).

B1: P46977 (protein, UniProt P46977 1-705, looked up)
chain: MTKFGFLRLSYEKQDTLLKLLILSMAAVLSFSTRLFAVLRFESVIHEFDPYFNYRTTRFLAEEGFYKFHNWFDDRAWYPLGRIIGGTIYPGLMITSAAIYHVLHFFHITIDIRNVCVFLAPLFSSFTTIVTYHLTKELKDAGAGLLAAAMIAVVPGYISRSVAGSYDNEGIAIFCMLLTYYMWIKAVKTGSICWAAKCALAYFYMVSSWGGYVFLINLIPLHVLVLMLTGRFSHRIYVAYCTVYCLGTILSMQISFVGFQPVLSSEHMAAFGVFGLCQIHAFVDYLRSKLNPQQFEVLFRSVISLVGFVLLTVGALLMLTGKISPWTGRFYSLLDPSYAKNNIPIIASVSEHQPTTWSSYYFDLQLLVFMFPVGLYYCFSNLSDARIFIIMYGVTSMYFSAVMVRLMLVLAPVMCILSGIGVSQVLSTYMKNLDISRPDKKSKKQQDSTYPIKNEVASGMILVMAFFLITYTFHSTWVTSEAYSSPSIVLSARGGDGSRIIFDDFREAYYWLRHNTPEDAKVMSWWDYGYQITAMANRTILVDNNTWNNTHISRVGQAMASTEEKAYEIMRELDVSYVLVIFGGLTGYSSDDINKFLWMVRIGGSTDTGKHIKENDYYTPTGEFRVDREGSPVLLNCLMYKMCYYRFGQVYTEAKRPPGFDRVRNAEIGNKDFELDVLEEAYTTEHWLVRIYKVKDLDNRGLSRT
modifications: full-length
B2: Q12797 (protein, UniProt Q12797 1-758, looked up)
chain: MAQRKNAKSSGNSSSSGSGSGSTSAGSSSPGARRETKHGGHKNGRKGGLSGTSFFTWFMVIALLGVWTSVAVVWFDLVDYEEVLGKLGIYDADGDGDFDVDDAKVLLGLKERSTSEPAVPPEEAEPHTEPEEQVPVEAEPQNIEDEAKEQIQSLLHEMVHAEHVEGEDLQQEDGPTGEPQQEDDEFLMATDVDDRFETLEPEVSHEETEHSYHVEETVSQDCNQDMEEMMSEQENPDSSEPVVEDERLHHDTDDVTYQVYEEQAVYEPLENEGIEITEVTAPPEDNPVEDSQVIVEEVSIFPVEEQQEVPPETNRKTDDPEQKAKVKKKKPKLLNKFDKTIKAELDAAEKLRKRGKIEEAVNAFKELVRKYPQSPRARYGKAQCEDDLAEKRRSNEVLRGAIETYQEVASLPDVPADLLKLSLKRRSDRQQFLGHMRGSLLTLQRLVQLFPNDTSLKNDLGVGYLLIGDNDNAKKVYEEVLSVTPNDGFAKVHYGFILKAQNKIAESIPYLKEGIESGDPGTDDGRFYFHLGDAMQRVGNKEAYKWYELGHKRGHFASVWQRSLYNVNGLKAQPWWTPKETGYTELVKSLERNWKLIRDEGLAVMDKAKGLFLPEDENLREKGDWSQFTLWQQGRRNENACKGAPKTCTLLEKFPETTGCRRGQIKYSIMHPGTHVWPHTGPTNCRLRMHLGLVIPKEGCKIRCANETKTWEEGKVLIFDDSFEHEVWQDASSFRLIFIVDVWHPELTPQQRRSLPAI
modifications: full-length
B3: P50416 (protein, UniProt P50416 1-773, looked up)
chain: MAEAHQAVAFQFTVTPDGIDLRLSHEALRQIYLSGLHSWKKKFIRFKNGIITGVYPASPSSWLIVVVGVMTTMYAKIDPSLGIIAKINRTLETANCMSSQTKNVVSGVLFGTGLWVALIVTMRYSLKVLLSYHGWMFTEHGKMSRATKIWMGMVKIFSGRKPMLYSFQTSLPRLPVPAVKDTVNRYLQSVRPLMKEEDFKRMTALAQDFAVGLGPRLQWYLKLKSWWATNYVSDWWEEYIYLRGRGPLMVNSNYYAMDLLYILPTHIQAARAGNAIHAILLYRRKLDREEIKPIRLLGSTIPLCSAQWERMFNTSRIPGEETDTIQHMRDSKHIVVYHRGRYFKVWLYHDGRLLKPREMEQQMQRILDNTSEPQPGEARLAALTAGDRVPWARCRQAYFGRGKNKQSLDAVEKAAFFVTLDETEEGYRSEDPDTSMDSYAKSLLHGRCYDRWFDKSFTFVVFKNGKMGLNAEHSWADAPIVAHLWEYVMSIDSLQLGYAEDGHCKGDINPNIPYPTRLQWDIPGECQEVIETSLNTANLLANDVDFHSFPFVAFGKGIIKKCRTSPDAFVQLALQLAHYKDMGKFCLTYEASMTRLFREGRTETVRSCTTESCDFVRAMVDPAQTVEQRLKLFKLASEKHQHMYRLAMTGSGIDRHLFCLYVVSKYLAVESPFLKEVLSEPWRLSTSQTPQQQVELFDLENNPEYVSSGGGFGPVADDGYGVSYILVGENLINFHISSKFSCPETDSHRFGRHLKEAMTDIITLFGLSSNSKK
modifications: full-length
B4: Q9NSE4 (protein, UniProt Q9NSE4 1-1012, looked up)
chain: MRWGLRPRGPGAAALATARSLWGTPRLPCSPGWQGATKRLLVRSVSGASNHQPNSNSGRYRDTVLLPQTSFPMKLLGRQQPDTELEIQQKCGFSELYSWQRERKVKTEFCLHDGPPYANGDPHVGHALNKILKDIANRFHMMNGSKIHFVPGWDCHGLPIEIKVLSELGREAQNLSAMEIRKKARSFAKAAIEKQKSAFIRWGIMADWNNCYYTFDGKYEAKQLRTFYQMYDKGLVYRSYKPVFWSPSSRTALAEAELEYNPEHVSRSIYVKFPLLKPSPKLASLIDGSSPVSILVWTTQPWTIPANEAVCYMPESKYAVVKCSKSGDLYVLAADKVASVASTLETTFETISTLSGVDLENGTCSHPLIPDKASPLLPANHVTMAKGTGLVHTAPAHGMEDYGVASQHNLPMDCLVDEDGVFTDVAGPELQNKAVLEEGTDVVIKMLQTAKNLLKEEKLVHSYPYDWRTKKPVVIRASKQWFINITDIKTAAKELLKKVKFIPGSALNGMVEMMDRRPYWCISRQRVWGVPIPVFHHKTKDEYLINSQTTEHIVKLVEQHGSDIWWTLPPEQLLPKEVLSEVGGPDALEYVPGQDILDIWFDSGTSWSYVLPGPDQRADLYLEGKDQLGGWFQSSLLTSVAARKRAPYKTVIVHGFTLGEKGEKMSKSLGNVIHPDVVVNGGQDQSKEPPYGADVLRWWVADSNVFTEVAIGPSVLNAARDDISKLRNTLRFLLGNVADFNPETDSIPVNDMYVIDQYMLHLLQDLANKITELYKQYDFGKVVRLLRTFYTRELSNFYFSIIKDRLYCEKENDPKRRSCQTALVEILDVIVRSFAPILPHLAEEVFQHIPYIKEPKSVFRTGWISTSSIWKKPGLEEAVESACAMRDSFLGSIPGKNAAEYKVITVIEPGLLFEIIEMLQSEETSSTSQLNELMMASESTLLAQEPREMTADVIELKGKFLINLEGGDIREESSYKVIVMPTTKEKCPRCWKYTAESSDTLCPRCAEVVSGK
modifications: full-length
B5: O00159 (protein, UniProt O00159 1-1063, looked up)
chain: MALQVELVPTGEIIRVVHPHRPCKLALGSDGVRVTMESALTARDRVGVQDFVLLENFTSEAAFIENLRRRFRENLIYTYIGPVLVSVNPYRDLQIYSRQHMERYRGVSFYEVPPHLFAVADTVYRALRTERRDQAVMISGESGAGKTEATKRLLQFYAETCPAPERGGAVRDRLLQSNPVLEAFGNAKTLRNDNSSRFGKYMDVQFDFKGAPVGGHILSYLLEKSRVVHQNHGERNFHIFYQLLEGGEEETLRRLGLERNPQSYLYLVKGQCAKVSSINDKSDWKVVRKALTVIDFTEDEVEDLLSIVASVLHLGNIHFAANEESNAQVTTENQLKYLTRLLSVEGSTLREALTHRKIIAKGEELLSPLNLEQAAYARDALAKAVYSRTFTWLVGKINRSLASKDVESPSWRSTTVLGLLDIYGFEVFQHNSFEQFCINYCNEKLQQLFIELTLKSEQEEYEAEGIAWEPVQYFNNKIICDLVEEKFKGIISILDEECLRPGEATDLTFLEKLEDTVKHHPHFLTHKLADQRTRKSLGRGEFRLLHYAGEVTYSVTGFLDKNNDLLFRNLKETMCSSKNPIMSQCFDRSELSDKKRPETVATQFKMSLLQLVEILQSKEPAYVRCIKPNDAKQPGRFDEVLIRHQVKYLGLLENLRVRRAGFAYRRKYEAFLQRYKSLCPETWPTWAGRPQDGVAVLVRHLGYKPEEYKMGRTKIFIRFPKTLFATEDALEVRRQSLATKIQAAWRGFHWRQKFLRVKRSAICIQSWWRGTLGRRKAAKRKWAAQTIRRLIRGFVLRHAPRCPENAFFLDHVRTSFLLNLRRQLPQNVLDTSWPTPPPALREASELLRELCIKNMVWKYCRSISPEWKQQLQQKAVASEIFKGKKDNYPQSVPRLFISTRLGTDEISPRVLQALGSEPIQYAVPVVKYDRKGYKPRSRQLLLTPNAVVIVEDAKVKQRIDYANLTGISVSSLSDSLFVLHVQRADNKQKGDVVLQSDHVIETLTKTALSANRVNSININQGSITFAGGPGRDGTIDFTPGSELLITKAKNGHLAVVAPRLNSR
modifications: full-length
B6: O14773 (protein, UniProt O14773 1-563, looked up)
chain: MGLQACLLGLFALILSGKCSYSPEPDQRRTLPPGWVSLGRADPEEELSLTFALRQQNVERLSELVQAVSDPSSPQYGKYLTLENVADLVRPSPLTLHTVQKWLLAAGAQKCHSVITQDFLTCWLSIRQAELLLPGAEFHHYVGGPTETHVVRSPHPYQLPQALAPHVDFVGGLHRFPPTSSLRQRPEPQVTGTVGLHLGVTPSVIRKRYNLTSQDVGSGTSNNSQACAQFLEQYFHDSDLAQFMRLFGGNFAHQASVARVVGQQGRGRAGIEASLDVQYLMSAGANISTWVYSSPGRHEGQEPFLQWLMLLSNESALPHVHTVSYGDDEDSLSSAYIQRVNTELMKAAARGLTLLFASGDSGAGCWSVSGRHQFRPTFPASSPYVTTVGGTSFQEPFLITNEIVDYISGGGFSNVFPRPSYQEEAVTKFLSSSPHLPPSSYFNASGRAYPDVAALSDGYWVVSNRVPIPWVSGTSASTPVFGGILSLINEHRILSGRPPLGFLNPRLYQQHGAGLFDVTRGCHESCLDEEVEGQGFCSGPGWDPVTGWGTPNFPALLKTLLNP
modifications: full-length
B7: P10620 (protein, UniProt P10620 1-155, looked up)
chain: MVDLTQVMDDEVFMAFASYATIILSKMMLMSTATAFYRLTRKVFANPEDCVAFGKGENAKKYLRTDDRVERVRRAHLNDLENIIPFLGIGLLYSLSGPDPSTAILHFRLFVGARIYHTIAYLTPLPQPNRALSFFVGYGVTLSMAYRLLKSKLYL
modifications: full-length

Test: Proteomics analysis (trypsin digest, LC-MS/MS) of hMSC ghosts and derived CDLs, conditioned or unconditioned by PC3 medium
Parameters: species or system human
Conditions: LC-MS/MS peak area per protein; for Ratio of expression Cond. CDLs/Cond. Ghosts: CDLs derived from conditioned hMSCs versus conditioned ghosts; for Ratio of expression Cond Ghosts/Ghosts: hMSC ghosts conditioned by PC3 medium versus unconditioned ghosts

Row | Molecule | Ratio of expression Cond. CDLs/Cond. Ghosts | Ratio of expression Cond Ghosts/Ghosts
1 | B1 | 3% | 138%
2 | B2 | 5% | 135%
3 | B3 | 2% | 142%
4 | B4 | 4% | 121%
5 | B5 | 4% | 129%
6 | B6 | 6% | 129%
7 | B7 | 3% | 128%
